# Reference: PubChem BioAssay AID1259290 (Sanger Institute, 2017)
# Aim: 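Kinases whose loss kills colorectal cancer cells alone or alongside targeted drugs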 (primary screen)
# Cell system: human SNUC1 colorectal cancer cells
# Reagents: siRNA pool against human genes
# Conditions: anchor drugs BYL719 1 µM, cetuximab 5 µg/ml or trametinib 10 nM, or DMSO vehicle alone
# Detection: 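Cell viability relative to a non-targeting siRNA control, replicate-averaged, as robust z-score for knock-down alone, plus a synergy score for each anchor drug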
# Scale: viability z-score, siRNA alone: higher = more viable cells; low values mean essential gene; viability vs control, siRNA alone: higher = more viable cells; synergy score with BYL719 and synergy score with Cetuximab and synergy score with Trametinib: higher = stronger synthetic lethal effect with drug
# Hit rule: 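a knock-down without drug scoring a robust z under -3 counts as essential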
# Calls: active = essential: knock-down alone cut viability (z below -3); inactive = no clear viability loss with knock-down alone
# Here is a random part of 794 deposited reagents. In the full data, 9 (1.1%) got an active call. 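Calls rest on knock-down alone, not drug synergy; synergy above 0.15 was grouped apart and does not affect calls.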 No viability above 1 is reported: the scale is capped. Not stated in the record: the amount of reagent, the time to read-out.
gene knocked down,"viability z-score, siRNA alone","viability vs control, siRNA alone",synergy score with BYL719,synergy score with Cetuximab,synergy score with Trametinib,outcome
PFKFB1,-0.0859,0.908,0.0575,0.0256,0.125,inactive
IP6K2,0.275,0.94,-0.16,0.151,0.00418,inactive
STK39,0.904,0.997,-0.201,-0.0475,-0.0946,inactive
TEX14,0.936,1,-0.198,-0.00505,-0.185,inactive
CIB2,-0.555,0.866,-0.306,-0.0166,-0.119,inactive
DCLK3,-0.392,0.88,0.048,0.137,0.0319,inactive
WNK2,-0.505,0.87,-0.195,0.112,-0.0471,inactive
CAMK1G,-1.68,0.765,-0.176,0.0211,-0.0191,inactive
MAPK11,-1.49,0.782,-0.0639,0.042,0.0162,inactive
PRKAR2B,0.735,0.982,0.0444,0.00496,0.123,inactive
OBSCN,-0.459,0.874,-0.123,0.0868,0.007,inactive
